## Results from one PubChem assay

Data taken from PubChem BioAssay AID912, deposited by NCATS (2007).

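A cell-based FRET test of anthrax lethal toxin entry, tracked through the 460 nm emission signal; the cell line is not named here. Each compound was tested as a concentration series from about 0.0005 to 40 µM. The number is the fitted AC50 of the 460 nm signal alone; lower values mean a more potent effect. A falling signal goes with compounds filed as inhibitors or cytotoxic, a rising one with activators or fluorescent compounds (inferred from the filed classes).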

Values are in nM. Common to all entries: measured here: 460 nm channel. This is a side read-out of the assay, for part of the compounds, not drawn at random. A potency from a partial, single-point or poor curve is only a rough figure. The first word of each remark tells which way the curve ran; it can be opposite to the aim of the assay.

Cn1c2ccccc2c2ncn(CCC3=CCCCC3)c(=O)c21 gave AC50 25118 nM (rising, single point).
COC(=O)c1cc(-c2ccc3c(c2)OCO3)nc2ccccc12 gave AC50 12589 nM (rising, partial curve).
CN(C)c1ccc(/C=N/n2ncc3ccccc32)cc1 gave AC50 10000 nM (rising, partial curve).
N#Cc1ccc(C(c2nnnn2CCc2ccccc2)N2CCCCCC2)cc1 (stereo not shown) gave AC50 6310 nM (falling, partial curve).
Clc1ccc(C(c2ccc(Cl)cc2)C(Cl)(Cl)Cl)cc1 gave AC50 2512 nM (falling, full curve).
CC#C[C@]1(O)CC[C@H]2[C@@H]3CCC4=CC(=O)CCC4=C3[C@H](c3ccc(N(C)C)cc3)C[C@@]21C gave AC50 15848 nM (falling, partial curve).
COc1ccc2nc(NC(=O)C(NS(=O)(=O)c3cccs3)C(C)C)sc2c1 (stereo not shown) gave AC50 12589 nM (rising, single point).
N#Cc1cc2c(nc1SCC(=O)Nc1nccs1)CCCCC2 gave AC50 10000 nM (rising, single point).
O=C(Oc1ccc(-c2ccccc2)cc1)N1CCCCC1 gave AC50 1995 nM (falling, partial curve).
CCOC(=O)c1ccccc1N1C(=O)CSC1=S gave AC50 10000 nM (falling, partial curve).
CC(C)c1ccc(-c2nc(N3CCCC3)nc3n[nH]c(N)c23)cc1 gave AC50 79.43 nM (falling, full curve, poor fit).
O=c1c(-c2cccs2)nc2cnc(N3CCOCC3)nc2n1Cc1ccc(F)cc1 gave AC50 501.2 nM (rising, full curve).
N#Cc1cc(-c2ccccc2)oc1NC(=O)c1ccco1 gave AC50 794.3 nM (falling, full curve, poor fit).
CCOC(=O)c1cc2cc(F)ccc2nc1C gave AC50 2512 nM (falling, single point).
c1ccc(C(Cc2nc(-c3ccncc3)no2)c2ccccc2)cc1 gave AC50 6310 nM (falling, partial curve).
N#CC1=C(SCC(=O)NC23CC4CC(CC(C4)C2)C3)NC(=O)C(C#N)C12CCCCC2 (stereo not shown) gave AC50 3981 nM (falling, full curve, poor fit).
CC1(C)CCCN(C(=O)c2coc(=O)c(Br)c2)C1 gave AC50 398.1 nM (falling, full curve).
c1cc(C(c2nnnn2C2CCCCC2)N2CCN3CCCC3C2)ccn1 (stereo not shown) gave AC50 12589 nM (rising, partial curve, poor fit).
CCCCNC(=O)c1cc2c(=O)n3cccc(C)c3nc2n(Cc2ccccc2)c1=N gave AC50 251.2 nM (rising, full curve).